This is an account of results in PubChem BioAssay AID651900 (Broad Institute, 2012).

The list shows a part of the results. These are further read-outs of the screen, such as a control signal, another cell line or another target. No call is given for them.

This experiment in a line: cytotoxicity in NIH3T3 fibroblasts, dose response, cytotoxicity control, cell-based, plate reader, cherry-pick, two tests (AID 651900). To be noted: test 2 concentration series, at 26 µM.
Turning to `CC(=O)c1ccc(N2CCN(C(=O)c3ccc4c(c3)OCO4)CC2)cc1`, the activity was -4.43%.
`CC(Oc1ccc2c(-c3ccccc3)cc(=O)oc2c1)C(=O)NCc1ccccn1` (centres undefined): the activity was -10%.
Then `COc1ccc(NC(=O)c2ccc(-n3cncn3)c([N+](=O)[O-])c2)cc1OC`, with -1.79%; and `Nn1c(SCCOc2ccccc2)nnc1-c1cccnc1`, with -4.92%; and `COC(=O)c1c(C(=O)OC)c(-c2ccc(F)cc2)n2c1CS(=O)C2` (centres undefined), with -4.71%.
To `CC(=O)c1ccc(N2CCN(c3ncccn3)CC2)c([N+](=O)[O-])c1` belongs -1.3%.
To `O=C(Nc1ccc(F)c(F)c1)c1ccc(-n2cncn2)c([N+](=O)[O-])c1` belongs 2.21%.
`COc1ccc(C(=O)Nc2ccc(Cn3ccnc3)cc2)cc1OC`: the activity stood at 2.9%.
To `C=C(C)n1c(=O)n(Cc2ccccc2C)c2ccccc21` belongs -17.7%; to `O=C(CN1C(=O)/C(=C/c2cccc(Br)c2)SC1=S)Nc1cccnc1`, 0.045%.
To `COC(=O)C1CCN(C(c2ccc(OC)c(OC)c2)c2sc3nc(C)nn3c2O)CC1` (centres undefined) belongs -7.29%.
To `Cc1ccc(-n2ncc3c2CC(C)(C)CC3NC(=O)CCc2cccnc2)cc1` (centres undefined) belongs 7.37%.
For the compound `O=C(Nc1ccc2snnc2c1)N1CCN(c2ccccc2)CC1`, the activity worked out at 0.698%.
For the compound `CN1CCN(c2ncnc3c2[nH]c2ccc(F)cc23)CC1`, the activity is -5.32%.
To `CC(=O)c1ccc(C(=O)N2CCCC(CO)(Cc3ccccc3C)C2)s1` (centres undefined) belongs -3.6%.
To `COc1cc(-c2nc3ccccc3nc2-c2ccc(O)c(OC)c2)ccc1O` belongs 2.04%; to `COc1ccc(C2c3c(-c4cc(Cl)c(C)cc4O)n[nH]c3C(=O)N2Cc2cccnc2)cc1OC` (centres undefined), -6.29%.
To `COCCN1C(=O)c2ccc(C(=O)Nc3cccnc3)cc2C1=O` belongs 3.17%.
Regarding `O=C(CSc1nnc(-c2ccncc2)n1-c1ccc(Cl)cc1)NCc1cccs1`, the activity is -7.81%.
Consider `Cc1ccc(NCc2nnc(SCC(=O)N3CCc4ccccc43)n2C)cc1`, for which the activity is -9.53%.
Turning to `O=C(Nc1cccnc1)c1ccc(Oc2ccccc2)cc1`, the activity is 5.57%.
Turning to `CCCc1c(OCCCOc2ccc(OCC(=O)O)cc2)ccc(C(C)=O)c1O`, the activity stood at 2.08%.
To `Cc1cc(C)n(-c2ccc(C(=O)Nc3ccc4c(c3)OCO4)cc2)n1` belongs 3.07%; to `COc1ccc(Cc2c(-c3ccc(OC)c(OC)c3)nc3c(C)cc(Br)cn23)c(C)c1`, -2.46%; to `COc1ccc(NC2CCCN(C(=O)c3ccc(C(C)=O)s3)C2)cc1` (centres undefined), -0.782%.
Then `COc1ccc(C(C)NC(=O)Nc2ccc(C(C)=O)cc2)cc1OC` (centres undefined), with 4.98%.
In the case of `Cc1ccc(Cc2c(C)nc3nc(SCC(=O)NCCCN4CCCCC4)nn3c2C)cc1`, the activity stood at 9.86%.
Then `O=C(COc1ccc2ccc(=O)oc2c1)Nc1cccnc1`, with -3.91%; and `Fc1ccc2[nH]c3c(NCCN4CCOCC4)ncnc3c2c1`, with -1.95%; and `Cc1ccc(-c2nnc(N3CCN(C(=O)CSc4ncn[nH]4)CC3)c3ccccc23)cc1`, with -0.687%.
Then `Cc1cccc(-n2c(SCC(=O)N(C)C3CCS(=O)(=O)C3)nc3ccccc3c2=O)c1C` (centres undefined), with 4.22%; and `CCC(CO)[n+]1c(C)cc(/C=C2\Sc3ccccc3N2Cc2ccccc2)cc1C` (centres undefined), with -8.96%.
Then `CC1=C(C#N)C(c2cccnc2)C2=C(CC(c3ccc(Cl)cc3)CC2=O)N1` (centres undefined), with -2.76%.
Take `Cc1nc(-c2cccnc2)sc1C(=O)Nc1cccc(C(F)(F)F)c1`: the activity is -2.17%.
